Experimental data: patent US7737157B2, “Pyrimidine compounds” (Hutchison MediPharma Enterprises Limited, priority 2008, dated 2010)
Some entries share one result that the patent states for a list of compounds.

By UniProt entry, the sequences of proteins in these tests, tags left out. Residues count along the entry.
UniProt P35968, 834-1162 limits assumed: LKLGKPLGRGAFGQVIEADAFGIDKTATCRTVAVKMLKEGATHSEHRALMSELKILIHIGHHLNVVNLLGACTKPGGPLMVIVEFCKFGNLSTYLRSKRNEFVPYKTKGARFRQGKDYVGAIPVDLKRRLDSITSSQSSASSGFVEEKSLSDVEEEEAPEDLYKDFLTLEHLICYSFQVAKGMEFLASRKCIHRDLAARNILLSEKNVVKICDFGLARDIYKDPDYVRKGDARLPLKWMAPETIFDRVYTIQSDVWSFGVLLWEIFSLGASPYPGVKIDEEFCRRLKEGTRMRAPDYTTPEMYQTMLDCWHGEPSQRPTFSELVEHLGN

The molecules below were run against T1, KDR (Homo sapiens, UniProt P35968) (assay: Inhibition of KDR kinase activity (Z'-LYTE Tyr1 Peptide assay kit)). Settings: KDR catalytic domain, result in words.
T1 construct: was mixed with a KDR catalytic domain (Invitrogen, Cat. PV3660); purchased Invitrogen PV3660
Type: biochemical
In the case of `CNC(=O)c1c(C)oc2cc(Oc3ccnc(Nc4cccc(NC(=O)CN)c4)n3)ccc12` [Compound 103], the “inhibition of the activity of KDR” value is reported as “effectively inhibited the activity of KDR”. `CNCCNS(=O)(=O)Cc1cccc(Nc2nccc(Oc3ccc4c(C(=O)NC)c(C)oc4c3)n2)c1` [Compound 104] was tested, and the “inhibition of the activity of KDR” value was “effectively inhibited the activity of KDR”. With `CNC(=O)c1c(C)oc2cc(Oc3cc(Nc4cccc(OCCN5CCOCC5)c4)ncn3)ccc12` [Compound 105] the “inhibition of the activity of KDR” value was “effectively inhibited the activity of KDR”. With `CNC(=O)c1c(C)oc2cc(Oc3cc(Nc4cccc(CCN5CCOCC5)c4)ncn3)ccc12` [Compound 106] the “inhibition of the activity of KDR” value was “effectively inhibited the activity of KDR”. `CNC(=O)c1c(C)oc2cc(Oc3cc(Nc4ccc(OC)c(OC)c4)ncn3)ccc12` [Compound 107] was tested, and the “inhibition of the activity of KDR” value was “effectively inhibited the activity of KDR”. For `CNC(=O)c1c(C)oc2cc(Oc3cc(Nc4cnc(N)c(C)c4)ncn3)ccc12` [Compound 108], the “inhibition of the activity of KDR” value was “effectively inhibited the activity of KDR”. For `CNC(=O)c1c(C)oc2cc(Oc3cc(Nc4cccc(NC(=O)[C@@H](C)N(C)C)c4)ncn3)ccc12` [Compound 109], the “inhibition of the activity of KDR” value was “effectively inhibited the activity of KDR”. With `CNC(=O)c1c(C)oc2cc(Oc3cc(Nc4cccc(NC(=O)CN(C)C)c4)ncn3)ccc12` [Compound 110] the “inhibition of the activity of KDR” value was “effectively inhibited the activity of KDR”. For `CNC(=O)c1c(C)oc2cc(Oc3cc(Nc4ccc5c(cnn5C)c4)ncn3)ccc12` [Compound 111], the “inhibition of the activity of KDR” value was “effectively inhibited the activity of KDR”.
